Results taken from patent US12448394B2, “Heterocyclic pyrazole derivatives as type III receptor tyrosine kinase inhibitors” (DEVELOPMENT CENTER FOR BIOTECHNOLOGY, priority 2019, dated 2025).
Some entries share one result that the patent states for a list of compounds.

System: phosphorylation of FLT3 and its down-stream effector STAT5
Assay: Western blotting of p-FLT3 and p-STAT5 in MV4-11 cells
Format: cell-based, human
Conditions: at 30 nM treatment, 3 hours, FLT3-ITD positive MV4-11 leukemia cells
Method: The potent compounds of formula (I) in EXAMPLE 2 were evaluated, by western blotting assay, for their cellular potencies against phosphorylation of FLT3 and its down-stream effector STAT5 in MV4-11 leukemia cell line with constitutive activation of FLT3 signaling. For western blotting experiments, MV4-11 cells were cultured in IMDM medium containing 0.1% FBS overnight. On the assay day, three million cells were treated with or without compounds for 3 hours in 15 mL tubes. Then, the whole cell lysates were harvested, following extraction by adding 2×SDS Sample Buffer and boiling on hot plate at 105° C. for 15 minutes. The resulting cell lysates were separated by SDS-PAGE electrophoresis and transferred to PVDF membrane. Protein expression was detected using immunoblot with corresponding primary antibody and secondary antibody following the standard procedures. Antibody against p-FLT3 (Tyr-591), anti-rabbit IgG HRP-linked secondary antibody, and anti-mouse IgG HRP-linked secondary antibody were purchased from Cell Signaling Technology. Antibody against p-STAT5 (Tyr-694) was purchased from BD biosciences. Antibody against actin was purchased from R&D system. […] Band intensities of western blot were also quantified by ChemiDoc™ MP Imaging System. […] The percentage (%) inhibition at each drug concentration was calculated using the formula: Percentage(%)inhibition=(1−Relative intensity)×100.

Cc1ccc(-c2cc3c(s2)Cc2c(-c4ccc5cnn(C)c5c4)n[nH]c2-3)cn1 [Compound 11, 3-(1-methyl-1H-indazol-6-yl)-6-(6-methylpyridin-3-yl)-1,4-dihydrothieno [2′,3′:4,5]cyclopenta[1,2-c] pyrazole]
inhibition activity against phosphorylation of FLT3 and its down-stream effector STAT5: Compound with >50%
